The experiment deals with Sp1 transcription factor (Sp1) (human) (UniProt P08047). The experiment is described as follows: co-IP; co-IP of Sp1 and TRIM25 in CRC cells with or without LINC00955 overexpression; bait and antibody not stated.

The chains behind the UniProt entries cited, without tags or fusion partners.
UniProt P08047: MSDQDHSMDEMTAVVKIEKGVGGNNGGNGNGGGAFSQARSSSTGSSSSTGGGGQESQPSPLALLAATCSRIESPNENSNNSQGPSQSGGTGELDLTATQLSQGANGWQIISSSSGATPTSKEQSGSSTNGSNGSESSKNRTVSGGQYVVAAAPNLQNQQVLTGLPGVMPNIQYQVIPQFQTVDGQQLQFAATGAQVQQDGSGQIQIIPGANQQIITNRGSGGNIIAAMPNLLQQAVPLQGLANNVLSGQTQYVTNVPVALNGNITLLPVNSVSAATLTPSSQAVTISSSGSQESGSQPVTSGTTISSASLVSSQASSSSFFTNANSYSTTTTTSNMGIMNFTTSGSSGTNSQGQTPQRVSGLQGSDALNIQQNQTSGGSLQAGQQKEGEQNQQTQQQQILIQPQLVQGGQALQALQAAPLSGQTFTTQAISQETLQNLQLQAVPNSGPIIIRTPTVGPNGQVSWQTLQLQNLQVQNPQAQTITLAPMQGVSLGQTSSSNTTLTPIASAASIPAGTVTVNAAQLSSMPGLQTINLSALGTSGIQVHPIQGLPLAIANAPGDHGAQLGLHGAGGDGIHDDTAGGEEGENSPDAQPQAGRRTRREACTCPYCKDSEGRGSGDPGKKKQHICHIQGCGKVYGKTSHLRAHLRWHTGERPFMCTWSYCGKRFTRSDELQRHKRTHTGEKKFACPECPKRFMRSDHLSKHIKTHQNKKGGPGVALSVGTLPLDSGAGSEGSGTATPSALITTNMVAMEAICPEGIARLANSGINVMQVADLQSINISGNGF
UniProt Q14258: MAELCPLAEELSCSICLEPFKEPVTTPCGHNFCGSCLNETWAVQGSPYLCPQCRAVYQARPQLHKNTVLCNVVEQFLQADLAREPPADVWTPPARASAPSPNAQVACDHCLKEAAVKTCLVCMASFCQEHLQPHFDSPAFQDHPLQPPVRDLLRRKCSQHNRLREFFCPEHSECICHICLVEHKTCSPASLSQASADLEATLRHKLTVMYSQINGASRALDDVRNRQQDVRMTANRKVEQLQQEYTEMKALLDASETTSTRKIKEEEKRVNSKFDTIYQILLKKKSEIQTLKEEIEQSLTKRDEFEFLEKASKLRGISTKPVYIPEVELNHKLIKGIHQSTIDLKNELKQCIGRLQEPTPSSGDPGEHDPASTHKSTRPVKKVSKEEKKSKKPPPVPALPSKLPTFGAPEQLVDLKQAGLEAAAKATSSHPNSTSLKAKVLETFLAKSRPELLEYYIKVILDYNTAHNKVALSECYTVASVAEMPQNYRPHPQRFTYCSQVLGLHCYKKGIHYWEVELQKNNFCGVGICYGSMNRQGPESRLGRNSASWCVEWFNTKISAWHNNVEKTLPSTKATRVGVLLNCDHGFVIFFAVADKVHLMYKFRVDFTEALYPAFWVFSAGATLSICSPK

These are yes or no findings as the source states them, for the method shown. Binding seen in cells or lysates may run through a third protein. Some binding calls cover weakened binding; strength is not graded here.

Turning to “tripartite motif containing 25 (TRIM25) (from UniProt Q14258 1-630) (enzyme)”, the binding result was “binds”.

(Values after PMC10518100.)
